Values quoted from earlier work in US20250255926A1, “GINGEROL COMPOSITIONS AND RELATED METHODS” (ThermoLife International, LLC, priority 2024, published 2025).
At least one compound was matched to its structure with a doubt left.

Test system: C-reactive protein
Conditions: in vivo; cited from earlier work

[Li] [lithium]
Effects on CRP levels: no appreciable effects
